Earlier results on one compound are cited in article PMC8133002, “Disruption of microtubule function in cultured human cells by a cytotoxic ruthenium(II) polypyridyl complex” (Chemical Science, 2019).

Molecules are shown by their SMILES.

The subject of this data set is MCF7. Further details: method as in PMID 23590802. As to conditions: cited from earlier work.

In general, IC50 refers to the midpoint of a concentration-inhibition curve. With `CC(=O)O[C@H]1C(=O)[C@@]2(C)[C@H]([C@H](OC(=O)c3ccccc3)[C@]3(O)C[C@H](OC(=O)[C@H](O)[C@@H](NC(=O)c4ccccc4)c4ccccc4)C(C)=C1C3(C)C)[C@]1(OC(C)=O)CO[C@@H]1C[C@@H]2O` [PTX, paclitaxel], the IC50 is 25 nM.
